Measured values reported in PubChem BioAssay AID504467 (National Center for Advancing Translational Sciences (NCATS), 2011).
The whole screen tested about 330,000 compounds, of which about 7,700 (2.3%) were called active. This list was built around the results that the source calls inconclusive (neither active nor inactive); the mix of calls is not that of the screen. Calls come from the whole dose curve; as a rule, active = well fitted inhibition curve with a large enough effect; inconclusive = small, poorly fitted or top-dose-only effect, or effect the other way; inactive = flat fitted curve, though single readings scatter. A potency beside an inconclusive call is a rough fit, not a confirmed value.
% is set by controls: 0 for no effect and ±100 for the full control effect; potency is the fitted concentration of half-maximal effect.

Assay: qHTS screen for small molecules that inhibit ELG1-dependent DNA repair in human embryonic kidney (HEK293T) cells expressing luciferase-tagged ELG1; note: nearly all actives have a fitted effect of over 55% in size
Conditions: HEK293T ELG1-luciferase reporter, luminescence, 16 h, DNA damage induced by 5-fluorouridine; activity change, negative = inhibition: at 46.1 µM (top of the series)
Procedure, shortened: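 Cells (2,000 per well) received 5-fluorouridine plus test compound or DMSO and were incubated 16 hr at 37 °C, 5% CO2. Luciferase activity was read by luminescence 30 min after ONE-Glo addition; signal suppression marked inhibition of damage-induced ELG1 function.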
With `O=[N+]([O-])c1cc(F)c(N2CCCC2)cc1Br` the “activity change, negative = inhibition” value was inactive: -19.4%. In the case of `O=C(c1cc(C(=O)NCc2ccc(Cl)cc2)c(=O)n(Cc2ccc(Cl)cc2)c1)c1cc(F)ccc1O`, the Potency is reported as inconclusive: 20.6 µM [inhibitor, partial curve, poor fit]. For `COc1ccc(NCC(=O)N2CCCC2)cc1Cl`, the Potency was inconclusive: 25.9 µM [activator, single point]. For `Nc1nc(N)nc(-c2ccc(Oc3ccccc3)cc2)n1`, the Potency was inconclusive: 16.4 µM [activator, single point]. In the case of `COc1ccc(NC(=O)N(C)C[C@H]2Oc3c(NC(=O)Nc4ccccc4)cccc3C(=O)N([C@H](C)CO)C[C@@H]2C)cc1`, the Potency is reported as inconclusive: 9.2 µM [inhibitor, partial curve]. For `COc1c(C)cc(C(=O)C2CCCN(Cc3cccc(O)c3)C2)cc1C` (stereo not drawn), the Potency was inconclusive: 23.1 µM [inhibitor, single point]. In the case of `Cc1ccc(-n2cc(CNC(C)Cc3cnccn3)c(-c3cccc(C)c3)n2)cc1` (stereo not drawn), the Potency is reported as inconclusive: 18.3 µM [inhibitor, single point]. For `C1=C(CCNCc2ccccc2)CCCC1`, the “activity change, negative = inhibition” value was inactive: 1.74%. With `CC(=NCc1ccc(F)cc1)c1c(O)n(C)c(=O)n(C)c1=O` the “activity change, negative = inhibition” value was inactive: -29%. With `Cc1nc2c(c(N3CCOCC3)n1)OCC(=O)N2` the Potency was inconclusive: 11.6 µM [activator, partial curve, poor fit]. In the case of `CCN(CC)c1ccc(/C=C2\C(=O)NC(=S)N(C)C2=O)o1`, the Potency is reported as inconclusive: 8.2 µM [activator, partial curve]. For `Cc1c(C(=O)N2CCC3(CC2)OCCO3)sc2ncnc(N(C)c3ccccc3)c12`, the Potency was inconclusive: 25.9 µM [inhibitor, partial curve, poor fit]. With `O=C(O)c1ccc(-[n+]2c(-c3ccccc3)cc(-c3ccccc3)cc2-c2ccccc2)cc1` the “activity change, negative = inhibition” value was inactive: -6.01%. With `Cc1ccc(C(C)C)c(OCC(=O)N2CCN(Cc3nc4cc([N+](=O)[O-])ccc4n3C)CC2)c1` the Potency was active: 20.6 µM. In the case of `CC(Cc1ccccc1)NC=O` (stereo not drawn), the Potency is reported as inconclusive: 0.103 µM [activator, partial curve, poor fit]. In the case of `CC1=NN(c2ccccc2)C(=O)C1/C=C1/C(=O)NC(=O)N(c2cc(C)cc(C)c2)C1=O` (stereo not drawn), the “activity change, negative = inhibition” value is reported as inactive: -0.236%. For `COC(=O)C1=C(c2c(C)noc2C)C[C@@H]2CC[C@H]1N2C(=O)NCc1ccco1`, the Potency was inconclusive: 20.6 µM [activator, single point]. In the case of `Cc1[nH]c2ccc(OC(F)(F)F)cc2c1CCNCc1cccc([N+](=O)[O-])c1`, the Potency is reported as inconclusive: 32.6 µM [inhibitor, partial curve, poor fit].
